Results are given in words; binding and its absence hold for the method and conditions named. Binding seen in cells or lysates may run through a third protein. Some results given as binding are weak or reduced against the parent protein; the word gives no strength. Tags and fused reporters may be left off the sequences shown.

Sequences of proteins named here, by UniProt entry; tags and fusion partners are left off.
UniProt P31153: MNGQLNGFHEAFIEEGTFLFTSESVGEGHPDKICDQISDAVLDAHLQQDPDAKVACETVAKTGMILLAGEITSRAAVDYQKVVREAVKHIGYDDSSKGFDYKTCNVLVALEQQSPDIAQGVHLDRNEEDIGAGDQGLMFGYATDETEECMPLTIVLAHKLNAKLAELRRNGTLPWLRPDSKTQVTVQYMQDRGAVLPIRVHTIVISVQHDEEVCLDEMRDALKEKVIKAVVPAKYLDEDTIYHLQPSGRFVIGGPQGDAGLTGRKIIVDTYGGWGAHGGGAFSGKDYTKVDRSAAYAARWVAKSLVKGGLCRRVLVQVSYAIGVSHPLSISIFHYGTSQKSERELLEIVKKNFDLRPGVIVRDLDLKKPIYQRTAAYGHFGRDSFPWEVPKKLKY

We go through three molecules from paper PMC12037730 (Nature Communications, 2025).

For assay [1], the target named is T1, Flag-tagged PRPS2 (phosphoribosyl pyrophosphate synthetase 2) (human) (UniProt P11908).
T1 sequence: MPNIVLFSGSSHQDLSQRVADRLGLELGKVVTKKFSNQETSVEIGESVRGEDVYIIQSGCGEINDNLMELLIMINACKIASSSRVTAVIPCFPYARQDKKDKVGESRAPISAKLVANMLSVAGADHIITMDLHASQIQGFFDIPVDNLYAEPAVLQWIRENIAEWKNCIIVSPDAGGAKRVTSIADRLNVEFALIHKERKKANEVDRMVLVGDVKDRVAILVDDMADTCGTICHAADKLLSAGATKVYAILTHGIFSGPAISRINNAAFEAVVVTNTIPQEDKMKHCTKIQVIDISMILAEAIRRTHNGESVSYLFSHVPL
Kind of assay: co-IP; HEK293FT/HEK293T cells transfected with FLAG-PRPS2 and HA-(GFP-)MAT2A; lysis buffer 20 mM tris-HCl pH 7.5, 150 mM NaCl, 0.5 mM EDTA, 0.5% NP-40; anti-FLAG M2 or anti-HA magnetic beads overnight at 4 °C; Western blot. Background: A western blot detects proteins with antibodies after separation by electrophoresis.

Assay [2] concerns the target T1, Flag-tagged PRPS2 (phosphoribosyl pyrophosphate synthetase 2) (human). Kind of assay: pull-down; Flag-tag based high-affinity pulldown from H1299 and HEK293T (HEK293FT in the text) stable cell lines ectopically expressing Flag-tagged PRPS2 or PRPS1, to trap endogenous interacting proteins; how the proteins were identified is not told.
For a further assay, the target named is GFP-HA-tagged MAT2A (UniProt P31153). Description: co-IP; HEK293FT/HEK293T cells transfected with FLAG-PRPS2 and HA-(GFP-)MAT2A; lysis buffer 20 mM tris-HCl pH 7.5, 150 mM NaCl, 0.5 mM EDTA, 0.5% NP-40; anti-FLAG M2 or anti-HA magnetic beads overnight at 4 °C; Western blot.

Regarding “GFP-HA-tagged MAT2A (from UniProt P31153 1-395) (enzyme)”, the binding result in assay [1] is listed as “binds”.

For the molecule “endogenous MAT2A (methionine adenosyltransferase 2A) (from UniProt P31153 1-395) (enzyme)”, in assay [2], the binding result was “binds”.

B1: recombinant PRPS2 (enzyme, human, UniProt P11908-2 1-321, looked up)
chain: T1 sequence
notes: PRPS2, human, full-length gene synthesised and subcloned into pSumo; the form with V103, G104, E105 (3AA) in Loop2 and Q156, i.e. the 321-residue isoform; Crystallised with R5P, ApCpp and Cd2+; source: E. coli BL21(DE3), purified (Ni-NTA, ion exchange, Superdex-200); not shown: His-Sumo, N-terminal, cleaved
Consider B1, for which, in the assay with GFP-HA-tagged MAT2A, the binding entry is “binds”.
